The supplement of paper PMC12823440, “Inhibitors supercharge kinase turnover through native proteolytic circuits” (Nature, 2025)
Structures can show the parent of a compound that is named as a salt. Some of the results follow. Hit calls seldom repeat between salt and free forms of one compound.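 In K562 cells expressing nanoluciferase-fused kinases, luminescence was recorded at 4 h intervals between 2 and 18 h, normalized as percent of control with DMSO at 100% and a positive control at 0%. A significant (2 sigma) signal drop marks a time point as decreased. The authors' rule for a hit is not shown and takes in more than the number of time points.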

Protein sequences, listed by entry. Tags and fused reporters are not part of them.
UniProt P07333, whole entry: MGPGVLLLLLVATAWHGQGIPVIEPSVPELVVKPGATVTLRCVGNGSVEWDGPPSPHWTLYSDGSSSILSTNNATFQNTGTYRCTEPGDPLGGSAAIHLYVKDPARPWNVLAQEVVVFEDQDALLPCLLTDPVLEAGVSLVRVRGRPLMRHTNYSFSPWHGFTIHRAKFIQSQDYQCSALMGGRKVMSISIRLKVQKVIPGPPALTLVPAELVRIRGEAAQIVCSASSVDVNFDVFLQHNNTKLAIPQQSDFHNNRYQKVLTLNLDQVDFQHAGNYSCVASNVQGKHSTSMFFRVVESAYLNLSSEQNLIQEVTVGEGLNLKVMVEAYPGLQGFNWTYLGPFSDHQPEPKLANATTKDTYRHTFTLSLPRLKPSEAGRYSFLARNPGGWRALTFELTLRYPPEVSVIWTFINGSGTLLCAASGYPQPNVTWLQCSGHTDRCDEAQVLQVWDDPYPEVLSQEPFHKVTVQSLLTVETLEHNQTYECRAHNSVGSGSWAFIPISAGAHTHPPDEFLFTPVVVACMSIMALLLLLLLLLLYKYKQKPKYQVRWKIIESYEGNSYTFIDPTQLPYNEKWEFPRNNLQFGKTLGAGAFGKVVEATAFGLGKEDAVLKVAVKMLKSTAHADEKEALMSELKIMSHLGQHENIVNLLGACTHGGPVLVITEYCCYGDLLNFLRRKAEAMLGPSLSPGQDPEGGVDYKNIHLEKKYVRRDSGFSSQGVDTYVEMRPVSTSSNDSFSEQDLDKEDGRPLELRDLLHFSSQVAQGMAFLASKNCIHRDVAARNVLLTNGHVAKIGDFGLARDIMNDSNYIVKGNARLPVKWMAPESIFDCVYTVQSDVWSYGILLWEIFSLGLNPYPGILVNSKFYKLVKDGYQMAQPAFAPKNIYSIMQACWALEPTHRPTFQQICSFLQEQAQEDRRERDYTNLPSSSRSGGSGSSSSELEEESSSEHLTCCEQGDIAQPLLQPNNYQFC

The molecules below were run against CSF1R (UniProt P07333) (assay: number of time points (of 5) at which kinase-Nluc abundance scored as decreased, DMSO-normalised (count); higher = more persistent destabilization). Settings: K562; 2-18 h.
With `O=C1NC(=O)C(c2cn(-c3ccccc3)nc2-c2ccc(F)cc2)N1` (configuration not stated) (10 µM) the “number of time points” value was 0. In the case of `O=[N+]([O-])c1ccc(Sc2cccc[n+]2[O-])c2nonc12` (2.5 µM), the “number of time points” value is reported as 0. `COc1nc(-c2ccnc(NC(=O)C3CC3)c2)sc1C(N)=O` [GSK-3β inhibitor 2] (10 µM) was tested, and the “number of time points” value was 0. For `CCN1/C(=C/C(C)=O)Sc2ccc(OC)cc21` (10 µM), the “number of time points” value was 0. `Nc1cccc(S(=O)(=O)N2CCCN(S(=O)(=O)c3ccc4c(c3)OCCO4)CC2)c1` (10 µM) was tested, and the “number of time points” value was 0. In the case of `Nc1ncc(-c2ccc(C(=O)N3CCNCC3)cc2)nc1-c1ccc(C(F)(F)F)cc1` (10 µM), the “number of time points” value is reported as 0. For `CC[C@H](Nc1ncnc2[nH]cnc12)c1oc2ccccc2c(=O)c1-c1cccc(F)c1` [Tenalisib] (10 µM), the “number of time points” value was 0. For `CC(C)(O)[C@@H]1CC[C@](C)([C@H]2[C@@H](O)C[C@@]3(C)[C@@H]4C[C@H](O[C@@H]5O[C@H](CO)[C@@H](O)[C@H](O)[C@H]5O)[C@H]5C(C)(C)[C@@H](O[C@@H]6OC[C@@H](O)[C@H](O)[C@H]6O[C@@H]6O[C@H](CO)[C@@H](O)[C@H](O)[C@H]6O)CC[C@@]56C[C@@]46CC[C@]23C)O1` [Astragaloside VI] (10 µM), the “number of time points” value was 0. For `CC(=O)Nc1nc2ccc(-c3cnc(C)c(NC(=O)OC4CCCCC4)c3)cc2s1` (10 µM), the “number of time points” value was 0. With `COc1ccccc1/C=C1\C(=O)Nc2ccccc21` (10 µM) the “number of time points” value was 0. For `CC1(N)CCN(c2cnc3c(-c4cccc(Cl)c4Cl)[nH]nc3n2)CC1` (2.5 µM), the “number of time points” value was 0. In the case of `CC(C)C[C@H](NC(=O)[C@H](CCCCN)NC(=O)[C@H](CO)NC(=O)[C@@H](N)CC(C)C)C(N)=O` [LSKL, Inhibitor of Thrombospondin (TSP-1) (TFA)] (10 µM), the “number of time points” value is reported as 0. With `CN1CC[C@H](c2c(O)cc(O)c3c(=O)cc(-c4ccc(C(F)(F)F)cc4Cl)oc23)[C@H]1CO` [(2S,3R)-Voruciclib (hydrochloride)] (2.5 µM) the “number of time points” value was 0. For `C[C@H]1[C@H](OC(=O)CCC(=O)O)O[C@@H]2O[C@@]3(C)CC[C@H]4[C@H](C)CC[C@@H]1[C@@]24OO3` [Artesunate] (2.5 µM), the “number of time points” value was 1. `c1ccc(-c2nn3c(c2-c2ccnc4cc(OCCN5CCOCC5)ccc24)CCC3)nc1` (10 µM) was tested, and the “number of time points” value was 0. For `COc1cc(N2CCC(N(C)C)CC2)ccc1Nc1ncc(Cl)c(Nc2ccccc2P(C)(C)=O)n1` (2.5 µM), the “number of time points” value was 0. With `Cc1ccc(-c2ncn(-c3ccc(Nc4nccc(-c5cccc(N6CCOCC6)c5)n4)cc3)n2)cn1` (10 µM) the “number of time points” value was 0. In the case of `CC[C@@H]1[C@H](F)C(=O)N[C@@H]1COc1nccc2cc(C(N)=O)c(OC)cc12` (10 µM), the “number of time points” value is reported as 0. In the case of `O=C1NC(=O)/C(=C/c2ccc(-c3ccc(F)cc3O)o2)S1` (10 µM), the “number of time points” value is reported as 0. With `Cc1cc(Nc2cc(CN3CCOCC3)c3nc(C)c(Cc4ccc(Cl)cc4F)n3n2)n[nH]1` [Gandotinib] (2.5 µM) the “number of time points” value was 0. `CN(C)C(=O)c1ccc(S(=O)(=O)c2ccc(NC(=O)[C@@](C)(O)C(F)(F)F)c(Cl)c2)cc1` (10 µM) was tested, and the “number of time points” value was 0. With `CCc1cccc(CC)c1NC(=O)c1nn(C)c2c1CCc1cnc(Nc3ccc(C(=O)NC4CCN(C)CC4)cc3OC(F)(F)F)nc1-2` (2 µM) the “number of time points” value was 0. With `O=C(Nc1ccc(Cl)cc1)C1CCCN(C(=O)c2cccc(-c3ccco3)c2)C1` (configuration not stated) (2.5 µM) the “number of time points” value was 0. In the case of `CN(C)Cc1cccc(N=C(c2ccccc2)c2c(O)[nH]c3cc(C(=O)N(C)C)ccc23)c1` (10 µM), the “number of time points” value is reported as 0. In the case of `OCCN(CCO)c1ccc(C(c2ccc(Cl)cc2)c2ccc(N(CCO)CCO)cc2)cc1` (10 µM), the “number of time points” value is reported as 3. `CCOc1ccccc1C=C1C(=O)Nc2ccccc21` (10 µM) was tested, and the “number of time points” value was 0. With `COc1ncc(Nc2ncc([C@@H](C)N3CCN(S(C)(=O)=O)CC3)cc2-c2nc(C)nc(N)n2)cc1F` (10 µM) the “number of time points” value was 0. `O=C(CO)N1CCC(c2n[nH]c(-c3ccc(Cl)cc3)c2-c2ccncn2)CC1` (10 µM) was tested, and the “number of time points” value was 0. In the case of `Cn1ncc(Cl)c1-c1cc(C(=O)N[C@H](CN)Cc2ccc(F)c(F)c2)sc1Cl` (10 µM), the “number of time points” value is reported as 0. For `O=c1ccc2ccc(O)c(O)c2o1` [Daphnetin] (10 µM), the “number of time points” value was 0. With `O=C(Nc1ccc(Cl)c(Cl)c1)Nc1ccc2nnsc2c1` (10 µM) the “number of time points” value was 0. With `O=C(O)c1cc(O)c2c(c1)[C@@H]([C@H]1c3cc(C(=O)O)cc(O)c3C(=O)c3c(O[C@@H]4O[C@H](CO)[C@@H](O)[C@H](O)[C@H]4O)cccc31)c1cccc(O[C@@H]3O[C@H](CO)[C@@H](O)[C@H](O)[C@H]3O)c1C2=O` [Sennoside B] (2.5 µM) the “number of time points” value was 0.
